Some entries share one result that the patent states for a list of compounds. At least one compound was matched to its structure with a doubt left.
Legend:
[1] = system: fall armyworm (Spodoptera frugiperda); experiment: Test B: control of fall armyworm on maize plant, foliar spray; format: in vivo; settings: 1-day-old larvae on maize plant, 25° C., visually rated
[2] = system: diamondback moth (Plutella xylostella); experiment: Test A: control of diamondback moth on radish plant, foliar spray; format: in vivo; settings: neonate larvae on radish plant, 6 days, 25° C., visually assessed

Structure (SMILES)	control efficacy, very good to excellent: feeding damage (40% or less feeding damage and/or 100% mortality) ([1]; sprayed at 50 ppm)	control efficacy, very good to excellent: feeding damage (40% or less feeding damage and/or 100% mortality) ([2]; sprayed at 50 ppm)	control efficacy, very good to excellent: feeding damage (40% or less feeding damage and/or 100% mortality) ([1]; sprayed at 250 ppm)	control efficacy, very good to excellent: feeding damage (40% or less feeding damage and/or 100% mortality) ([2]; sprayed at 250 ppm)
N#CC1CCN(Cc2cn(-c3ccc(Cl)cc3)nc2-c2cccc(F)c2F)CC1 [Compound 848]	≤ 40%	≤ 40%	–	–
N#CC1CCN(Cc2cn(-c3ccc(Cl)cc3)nc2-c2ccc(F)cc2)CC1 [Compound 14]	≤ 40%	≤ 40%	≤ 40%	≤ 40%
Clc1ccc(-n2cc(CN3CCC(c4nnco4)CC3)c(-c3ccccc3)n2)cc1 [Compound 798]	≤ 40%	≤ 40%	–	–
COc1cc(F)c(-c2nn(-c3ccc(Cl)cc3)cc2CN2CCC(C#N)CC2)c(F)c1 [Compound 889]	≤ 40%	≤ 40%	–	–
N#CC1CCN(Cc2cn(-c3ccc(C(F)(F)F)cc3)nc2-c2ccccc2F)CC1 [Compound 48]	≤ 40%	≤ 40%	–	≤ 40%
COC(=O)C1CCN(Cc2cn(-c3ccc(Cl)cc3)nc2-c2ccc(F)cc2)CC1 [Compound 13]	–	≤ 40%	≤ 40%	≤ 40%
O=C1CCC2(CCN(Cc3cn(-c4ccc(Cl)cc4)nc3-c3c(F)cc(F)cc3F)CC2)N1 [Compound 777]	≤ 40%	≤ 40%	–	–
N#CC1CCN(Cc2cn(-c3ccc(F)cc3)nc2-c2ccccc2F)CC1 [Compound 572]	≤ 40%	≤ 40%	–	–
Cc1ccc(F)c(-c2nn(-c3ccc(Cl)cc3)cc2CN2CCC(C#N)CC2)c1F [Compound 854]	≤ 40%	≤ 40%	–	–
N#CC1CCCN(Cc2cn(-c3ccc(Cl)c(Cl)c3)nc2-c2ccccc2F)C1 (stereo not drawn) [Compound 521]	≤ 40%	≤ 40%	–	–
Fc1ccc(-n2cc(CN3CCOCC3)c(-c3ccccc3Br)n2)cc1F [Compound 536]	≤ 40%	≤ 40%	–	–
N#CC1CCN(Cc2cn(-c3ccc(Cl)cc3)nc2-c2cc(F)c(F)cc2F)CC1 [Compound 849]	≤ 40%	≤ 40%	–	–
N#CC1CCN(Cc2cn(-c3ccc(C(F)(F)F)cc3)nc2-c2ccco2)CC1 [Compound 91]	≤ 40%	≤ 40%	–	–
N#CC1CCN(Cc2cn(-c3ccc(-c4ccc(F)cc4)cc3)nc2-c2c(F)cc(F)cc2F)CC1 [Compound 780]	≤ 40%	≤ 40%	≤ 40%	–
N#CC1CCN(Cc2cn(-c3ccc4ccccc4n3)nc2-c2ccccc2F)CC1 [Compound 815]	≤ 40%	≤ 40%	–	–
N#CC1CCN(Cc2cn(-c3ccc(F)c(Cl)c3)nc2-c2ccc(Cl)cc2)CC1 [Compound 579]	–	–	≤ 40%	–
COC(=O)C1CCN(Cc2c(-c3ccccc3F)nn(-c3ccc(Cl)cc3)c2F)CC1 [Compound 759]	–	–	≤ 40%	–
Fc1ccccc1-c1nn(-c2ncc(Br)cn2)cc1CN1CCOCC1 [Compound 614]	≤ 40%	–	≤ 40%	–
N#CC1CCN(Cc2cn(-c3ccc(Cl)cc3)nc2-c2cc(F)cc(Cl)c2)CC1 [Compound 606]	≤ 40%	–	≤ 40%	–
N#CC1CCN(Cc2c(-c3ccccc3F)nn(-c3ccc(Cl)cc3)c2F)CC1 [Compound 760]	≤ 40%	–	≤ 40%	–
N#CC1CCN(Cc2cn(-c3ccc(F)c(Cl)c3)nc2-c2ccc(F)cc2)CC1 [Compound 577]	≤ 40%	–	≤ 40%	–
COc1ccc(-c2nn(-c3ccc(Cl)cc3)cc2CN2CCC(C#N)CC2)c(F)c1 [Compound 888]	≤ 40%	–	–	–
N#CC1CCN(Cc2cn(-c3ccc(OC(F)(F)F)cc3)nc2-c2ccccc2C(F)(F)F)CC1 [Compound 563]	≤ 40%	–	≤ 40%	–

Structure (SMILES)	control efficacy, very good to excellent: feeding damage (40% or less feeding damage and/or 100% mortality) ([1]; sprayed at 50 ppm)	control efficacy, very good to excellent: feeding damage (40% or less feeding damage and/or 100% mortality) ([2]; sprayed at 50 ppm)	control efficacy, very good to excellent: feeding damage (40% or less feeding damage and/or 100% mortality) ([1]; sprayed at 250 ppm)	control efficacy, very good to excellent: feeding damage (40% or less feeding damage and/or 100% mortality) ([2]; sprayed at 250 ppm)
Fc1ccccc1-c1nn(-c2ccc(Cl)cc2)cc1CN1CCC(c2ccncc2)CC1 [Compound 746]	–	–	≤ 40%	–
Fc1ccc(-n2cc(CN3CCC(F)CC3)c(-c3ccccc3F)n2)cc1Cl [Compound 586]	–	–	≤ 40%	–
Fc1ccc(-n2cc(CN3CCOCC3)c(-c3ccccc3F)n2)cc1 [Compound 574]	≤ 40%	–	≤ 40%	–
Cc1ccc(-n2cc(CN3CCC(C#N)CC3)c(-c3ccccc3F)n2)cc1 [Compound 567]	≤ 40%	–	≤ 40%	–
Fc1ccccc1-c1nn(-c2ccc(Cl)cc2F)cc1CN1CCOCC1 [Compound 588]	≤ 40%	–	≤ 40%	–
O=C(NC1CCN(Cc2cn(-c3ccc(OC(F)(F)F)cc3)nc2-c2ccccc2F)CC1)C(F)(F)F [Compound 691]	–	–	≤ 40%	–
Fc1ccc(-n2cc(CN3CCN(CC4CC4)CC3)c(-c3ccccc3F)n2)cc1Cl [Compound 757]	–	–	≤ 40%	–
N#CC1CCN(Cc2cn(-c3ccc(Cl)c(Cl)c3)nc2-c2ccccc2C(F)(F)F)CC1 [Compound 115]	≤ 40%	–	–	–
N#CC1CCN(Cc2cn(-c3ccc(Cl)c(Cl)c3)nc2-c2cccs2)CC1 [Compound 118]	≤ 40%	–	–	–
N#CC1CCN(Cc2cn(-c3ccc(Cl)cc3)nc2-c2ccc(F)cc2Cl)CC1 [Compound 604]	≤ 40%	–	≤ 40%	–
NC(=S)C1CCN(Cc2cn(-c3ccc(F)c(Cl)c3)nc2-c2ccccc2F)CC1 [Compound 594]	≤ 40%	–	≤ 40%	–
N#CC1CCN(Cc2c(-c3ccccc3F)nn(-c3ccc(Cl)cc3)c2Cl)CC1 [Compound 740]	–	–	≤ 40%	–
Fc1ccccc1-c1nn(-c2ccc(F)c(F)c2F)cc1CN1CCOCC1 [Compound 731]	–	–	≤ 40%	–
O=C1CCC2(CCN(Cc3cn(-c4ccc(Cl)c(Cl)c4)nc3-c3ccccc3F)CC2)O1 [Compound 601]	–	–	≤ 40%	–
Clc1ccc(-n2cc(CN3CCOCC3)c(-c3ccccc3)n2)cc1 [Compound 756]	–	–	≤ 40%	–
N#CC1CCN(Cc2cn(-c3ccc(Cl)cc3)nc2-c2ccccc2)CC1 [Compound 755]	≤ 40%	–	≤ 40%	–
Fc1ccccc1-c1nn(-c2ccc(Cl)cc2)cc1CN1CCC(n2cncn2)CC1 [Compound 695]	–	–	≤ 40%	–
Fc1ccc(-c2nn(-c3ccc(Cl)cn3)cc2CN2CCN(CC3CC3)CC2)c(F)c1 [Compound 758]	–	–	≤ 40%	–
Cc1ccsc1-c1nn(-c2ccc(Cl)c(Cl)c2)cc1CN1CCC(C#N)CC1 [Compound 544]	≤ 40%	–	–	–
Cc1ccc(-n2cc(CN3CCC(C#N)CC3)c(-c3ccccc3C)n2)cc1 [Compound 571]	≤ 40%	–	≤ 40%	–
CC(C)(C)OC(=O)N[C@@H]1CCN(Cc2cn(-c3cccc(C(F)(F)F)c3)nc2-c2ccc(F)cc2)C1 [Compound 637]	≤ 40%	–	–	–
Fc1ccc(-c2nn(-c3ccc(F)c(Cl)c3)cc2CN2CCOCC2)cc1 [Compound 578]	≤ 40%	–	≤ 40%	–

Source: patent US9113631B2, “1,3-diaryl-substituted heterocyclic pesticides” (E I DU PONT DE NEMOURS AND COMPANY, priority 2011, dated 2015)
